Reference: the supplement of paper PMC3334620
Whole data set: some 33,000 sequences, median “E-score (-0.5 to 0.5)” near -0.015, cut for the highest 2% near 0.3. This is one part of the list.

Molecular target: T1, Abf1 (UniProt P14164)
T1 sequence: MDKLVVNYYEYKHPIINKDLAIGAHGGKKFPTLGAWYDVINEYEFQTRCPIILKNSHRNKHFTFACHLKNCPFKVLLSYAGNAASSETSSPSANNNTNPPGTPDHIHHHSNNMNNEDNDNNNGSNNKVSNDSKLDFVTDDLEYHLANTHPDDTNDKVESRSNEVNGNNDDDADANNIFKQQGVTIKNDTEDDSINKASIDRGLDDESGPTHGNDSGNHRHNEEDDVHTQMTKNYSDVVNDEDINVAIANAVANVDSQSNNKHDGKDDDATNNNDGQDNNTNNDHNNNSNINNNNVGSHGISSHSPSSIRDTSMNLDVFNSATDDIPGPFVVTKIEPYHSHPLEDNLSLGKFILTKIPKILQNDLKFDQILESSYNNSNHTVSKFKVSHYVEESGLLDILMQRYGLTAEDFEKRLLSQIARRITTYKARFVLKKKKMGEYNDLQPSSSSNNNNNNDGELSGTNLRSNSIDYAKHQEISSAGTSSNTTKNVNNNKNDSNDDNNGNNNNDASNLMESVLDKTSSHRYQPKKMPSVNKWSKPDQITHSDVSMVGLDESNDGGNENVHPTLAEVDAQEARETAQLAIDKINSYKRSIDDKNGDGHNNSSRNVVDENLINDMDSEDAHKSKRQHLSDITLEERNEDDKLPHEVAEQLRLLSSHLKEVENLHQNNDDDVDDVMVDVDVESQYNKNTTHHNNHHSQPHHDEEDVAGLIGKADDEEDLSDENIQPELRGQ
Experiment: PBM E-score (8-mer binding enrichment) (E-score (-0.5 to 0.5)); higher = stronger / more preferred TF binding
Details: protein concentration: 200 nM; construct: GST-full length
Method in brief: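 GST-tagged yeast TFs (full-length or DNA-binding domain) were made by PURExpress in vitro transcription/translation and applied at about 100-200 nM to universal all-10-mer Agilent arrays. The arrays were made double-stranded by primer extension, on fresh or once-stripped slides. Bound protein was detected with fluorescent anti-GST, and scans were normalised with masliner. Each ungapped eight-base word, pooled with its reverse complement, received an E-score (modified Wilcoxon-Mann-Whitney statistic) from the Universal PBM Analysis Suite.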

Sequence	PBM E-score
ACTATAGT	-0.0916
TATAGAAA	-0.0254
AAAGTACC	-0.0153
CCTCCGCG	-0.263
AGACCGTC	0.148
ACATAGGC	0.034
CTTCTACC	-0.189
CCGATGTA	-0.0466
ATAGCCAC	0.00817
ATCGAAAA	0.0388
CAGAAACG	-0.00582
GCGTCACC	-0.0404
CTGAAATA	0.00105
AACCTTCC	-0.294
GATGAAAC	0.0663
CGGGCGCA	-0.146
TAATTACA	0.157
AAAGTTTA	-0.0558
ATTAGCTG	0.0666
AAACATGC	-0.145
AGTAACGC	-0.0388
GGTTTACA	0.0129
AAGGCCTG	-0.26
AGCGAATG	-0.111
ACCATACG	0.137

Sequence	PBM E-score
AGCGGGGC	0.00065
CCATAAGA	0.0147
GAACTAGC	-0.211
CTCATGAG	-0.128
ATCCAAAA	0.217
GCTTCAGA	-0.157
GGACGACA	0.299
GGTAGTGA	0.267
CGCAGAAA	-0.0752
CAGTAAAG	-0.194
AACGTTTC	0.0528
ATACTACA	0.2
AACTTAAA	0.102
CACCAGCG	-0.185
ATTGGCCC	-0.151
CCGCGGAC	0.0118
AACACTGT	0.0203
AATGAGAG	-0.114
ACACGGGG	-0.087
AGTCAGTG	-0.029
AGGAAACC	-0.0102
CTTGCCCA	-0.172
GACGGAAA	0.207
GGGTAAAA	0.0197
CCGTAAAA	0.235

Sequence	PBM E-score
AGCAGCCT	-0.282
AAATTTCG	0.0641
CTCTTACC	-0.0139
GCATTCGA	-0.0434
CAGCAAAA	-0.0386
CCCCCGCG	-0.261
TCGTCTCA	0.238
CTCCTCTA	-0.126
CACCAACG	-0.0896
AAAGCTAC	-0.00618
ACAGGGGC	-0.194
AAGACAGT	-0.141
AGTAGAAG	0.0154
CCCCGAAC	-0.187
CAGTGGTA	-0.166
AACAGACT	-0.155
AGCTAGGA	-0.183
AAGGGGAA	0.00372
GCACCCAC	0.161
AATCTGGG	-0.0476
ATAAGCGG	0.00641
CCCGTACC	0.182
ACTAGGAT	-0.003
GTGGCCGA	-0.203
CAGTTAGC	-0.111

Sequence	PBM E-score
AAACTGAG	-0.185
AACGATCA	0.24
CACTCAGA	-0.0129
GTGGATTA	0.0165
AGCAGGAC	0.0761
CCCCTGAC	-0.134
GATTCTCC	-0.185
ATGACCGG	0.0406
TATGTGGA	0.0334
AGTATTTC	0.209
TAGGAGAA	-0.139
AAATCGGT	-0.108
ACTCGAGC	-0.0898
CCCTTCAA	-0.138
AAACTCGT	0.0777
ATATGCGG	0.0202
AGCCGCTC	-0.0277
CTCCTCGC	-0.21
AGGTCGGC	-0.119
AGATCCCT	-0.0124
AACTCTAG	-0.0973
AGCGCCAT	-0.219
ACGGAGTG	0.0865
CAAGTACC	-0.0939
CACCTTCA	-0.182

Sequence	PBM E-score
ACCCGTGA	0.0874
AGCCGCTG	-0.143
GGGACCCC	-0.226
AAGGAGGT	-0.241
ACCACACC	-0.0125
CTGCTAAC	-0.0965
AGTTGCCA	-0.0833
CTTCCCTA	-0.119
ACTCCAAA	-0.147
ACCATCCC	-0.155
CTGGTAAC	0.163
CCTGTCGA	-0.139
AATGACGG	0.264
CACAGGGG	-0.279
CACTGTGC	-0.117
AAAATGAG	0.0916
GGGGAAGA	-0.322
ATCGCTAG	0.289
TGCGAACA	-0.00565
CTCCGGAG	-0.302
TTACATAA	0.197
CACCCTTC	-0.117
TCCGCGGA	0.00082
CAACAAAA	0.0923
GACTTAGA	-0.106

Sequence	PBM E-score
ACATTGAG	-0.169
TGAGGCAA	0.058
CCCGTAAC	-0.123
AGGAAACG	0.0642
ACGGTCAG	0.209
ACTCTATG	-0.19
ACTGTGAA	-0.00521
CAAGGCGA	-0.11
CACTTGCA	-0.0824
GGTGAGAA	0.0696
ACTCGATC	0.00233
CAGTTACG	-0.0205
TCCAGAAA	-0.0399
ATGCTATC	0.186
CTAAGTGA	0.327
CTCCCGCC	-0.119
AGCAGAGG	-0.206
ACGTTCTC	0.0453
ATCTGAGG	-0.067
CGACCCAA	0.0626
GAATTGTC	0.192
GGGGAACA	-0.264
CGCTTCAC	-0.221
ACTCTTGC	0.028
AGAGTAGG	-0.0248

51 consecutive entries already listed, for reference:
Sequence	PBM E-score
ATGACCGG	0.0406
TATGTGGA	0.0334
AGTATTTC	0.209
TAGGAGAA	-0.139
AAATCGGT	-0.108
ACTCGAGC	-0.0898
CCCTTCAA	-0.138
AAACTCGT	0.0777
ATATGCGG	0.0202
AGCCGCTC	-0.0277
CTCCTCGC	-0.21
AGGTCGGC	-0.119
AGATCCCT	-0.0124
AACTCTAG	-0.0973
AGCGCCAT	-0.219
ACGGAGTG	0.0865
CAAGTACC	-0.0939
CACCTTCA	-0.182
ACCCGTGA	0.0874
AGCCGCTG	-0.143
GGGACCCC	-0.226
AAGGAGGT	-0.241
ACCACACC	-0.0125
CTGCTAAC	-0.0965
AGTTGCCA	-0.0833
CTTCCCTA	-0.119
ACTCCAAA	-0.147
ACCATCCC	-0.155
CTGGTAAC	0.163
CCTGTCGA	-0.139
AATGACGG	0.264
CACAGGGG	-0.279
CACTGTGC	-0.117
AAAATGAG	0.0916
GGGGAAGA	-0.322
ATCGCTAG	0.289
TGCGAACA	-0.00565
CTCCGGAG	-0.302
TTACATAA	0.197
CACCCTTC	-0.117
TCCGCGGA	0.00082
CAACAAAA	0.0923
GACTTAGA	-0.106
ACATTGAG	-0.169
TGAGGCAA	0.058
CCCGTAAC	-0.123
AGGAAACG	0.0642
ACGGTCAG	0.209
ACTCTATG	-0.19
ACTGTGAA	-0.00521
CAAGGCGA	-0.11

More results:

Sequence	PBM E-score
ATACCCGA	0.058
GCATACGC	-0.149
AGGGTCCA	-0.208
AGTCAAAT	0.0428
ATGATAGG	0.116
AGCAGTAA	-0.0758
AGGGGCGA	-0.218
TTATTCAA	0.233
GTGGTTTA	-0.0445
CAGAGCGA	0.111
AACCCTCG	-0.127
CCTCGCAA	-0.185
ACATCTAA	-0.0374
GCGCGCCA	0.0425
AGGGACGG	-0.104
GGAGACAC	0.0682
CACTATAC	-0.00384
AATGTGTA	0.00412
GAGTGAAC	-0.115
TATCGCAA	0.0851
CAGAAGCC	-0.0653
CGCCGCGC	-0.15
